The results in this text go back to PubChem BioAssay AID256 (DTP/NCI, 2004).

The test system of this experiment is CD2F1 mice, L1210 leukemia ip, survival T/C. The experiment in a line: NCI In Vivo Anticancer Drug Screen. Data for tumor model L1210 Leukemia (intraperitoneal) in CD2F1 (CDF1) mice. The conditions noted are these: higher T/C = longer survival. Here is the method:
The antitumor activity of compounds was measured in mice bearing transplantable tumors. Survival or tumor size were measured and the results are expressed as the measurement made in the treated group (T) divided by the measurement made in the vehicle treated control group (C). The tumor model used in this assay is L1210 Leukemia (intraperitoneal) in CD2F1 (CDF1) mice

The mark [1] stands for this setting: T/C endpoint: mean survival time, dose: 50.0 mg/kg/injection, schedule: Q01DX009 (ip), vehicle: saline with Tween-80.
The mark [2] stands for this setting: T/C endpoint: mean survival time, dose: 400.0 mg/kg/injection, schedule: Q04DX003 (ip), vehicle: other.
Where [3] appears, read: T/C endpoint: mean survival time, dose: 100.0 mg/kg/injection, schedule: Q01DX009 (ip), vehicle: saline with Tween-80.
The mark [4] stands for this setting: T/C endpoint: mean survival time, dose: 200.0 mg/kg/injection, schedule: Q01DX009 (ip), vehicle: saline with Tween-80.
Setting [5] is: T/C endpoint: mean survival time, dose: 400.0 mg/kg/injection, schedule: Q01DX009 (ip), vehicle: saline with Tween-80.
[6] abbreviates: T/C endpoint: mean survival time, dose: 200.0 mg/kg/injection, schedule: Q04DX003 (ip), vehicle: saline with Tween-80.
Setting [7] is: T/C endpoint: mean survival time, dose: 400.0 mg/kg/injection, schedule: Q04DX003 (ip), vehicle: saline with Tween-80.
Setting [8] is: T/C endpoint: mean survival time, dose: 400.0 mg/kg/injection, schedule: Q01DX001 (ip), vehicle: saline with Tween-80.
Setting [9] is: T/C endpoint: mean survival time, dose: 400.0 mg/kg/injection, schedule: Q04DX003 (ip), vehicle: saline.

The list does not hold the whole screen: it gathers tests that were run many times, whatever their T/C, doses with no T/C, and many T/C values between a quarter and a half above the control. Other doses and runs of a compound stand elsewhere. T/C: endpoint of the treated group in % of that of the vehicle group. Some entries give survivors of the animals treated and no T/C: the source holds a T/C of zero for them, seemingly a mark for toxic or unscored doses. Some survivor counts are full or nearly so, which does not show that the dose was tolerated: survival well below the control is almost never listed, so the zero probably covers shortened survival too. Counts of survivors are from the toxicity check (mostly the fifth day) where no day follows; animals may have died later. Schedules are NCI's codes, read here as Q, the interval in days (D) or hours (H), X, the number of doses. Some entries were tested several times; the values are given in rising order. For survival time, the PubChem record calls one and a half times the control and up active, and a quarter to a half above the control has no call in these data; cut-offs in other NCI protocols can differ. Some T/C values are followed by the survivors on the day toxicity was checked, most often the fifth; where none is given, no animal had died by that day.

As to `C(=C\CN(Cc1ccccc1)Cc1ccccc1)/CN(Cc1ccccc1)Cc1ccccc1`, for the setting “T/C endpoint: mean survival time, dose: 400.0 mg/kg/injection, schedule: Q01DX009 (ip), vehicle: Klucel (hydroxypropylcellulose) (HPC)”, the survivor count was 5 of 6.
For `CCNC1=C(C)C(=O)C2=C(C1=O)C(COC(N)=O)C1(OC)C3NC3CN21` (configuration not stated), the T/C (T/C endpoint: mean survival time, dose: 24.0 mg/kg/injection, schedule: Q01DX001 (ip), vehicle: water) is 142 % of control.
Regarding `CC1(C)N=C(N)N=C(N)N1c1ccc(CCC(=O)Nc2ccc(S(=O)(=O)F)cc2)cc1`, the T/C runs as follows: under setting [1], 131 % of control; (T/C endpoint: mean survival time, dose: 50.0 mg/kg/injection, schedule: Q01DX009 (ip), vehicle: saline) 137 % of control; (T/C endpoint: mean survival time, dose: 100.0 mg/kg/injection, schedule: Q01DX009 (ip), vehicle: saline) 144 % of control.
On to `CCCCNC(C)(C)C(SS)c1ccc(C(F)(F)F)cc1` (configuration not stated), for which, under “T/C endpoint: mean survival time, dose: 200.0 mg/kg/injection, schedule: Q04DX003 (ip), vehicle: other”, the survivor count is given as 6 of 6.
Regarding `O=C(O)/C=N/NS(=O)(=O)c1ccc2ccccc2c1`, under setting [2], the survivor count is recorded as 3 of 6.
Turning to `CC1CC(C)(C)[N+]2=C(CCCC2)O1` (configuration not stated), the survivor count is on record as 0 of 6 under setting [3], 0 of 6 under setting [4] and 0 of 6 under setting [5].
As to `CS(=O)(=O)OCCCCOS(C)(=O)=O`, the survivor count by setting is: (T/C endpoint: mean survival time, dose: 60.0 mg/kg/injection, schedule: Q01DX009 (oral), vehicle: saline with Tween-80) 5 of 10; (T/C endpoint: mean survival time, dose: 120.0 mg/kg/injection, schedule: Q01DX001 (oral), vehicle: saline with Tween-80) 5 of 10; (T/C endpoint: mean survival time, dose: 120.0 mg/kg/injection, schedule: Q01DX009 (oral), vehicle: saline with Tween-80) 0 of 10; (T/C endpoint: mean survival time, dose: 120.0 mg/kg/injection, schedule: Q04DX003 (ip), vehicle: saline with Tween-80) 10 of 10; (T/C endpoint: mean survival time, dose: 240.0 mg/kg/injection, schedule: Q01DX001 (ip), vehicle: saline with Tween-80) 6 of 10; (T/C endpoint: mean survival time, dose: 240.0 mg/kg/injection, schedule: Q01DX001 (oral), vehicle: saline with Tween-80) 1 of 10. For the same compound, the survivor count is listed as 7 of 10 (T/C endpoint: mean survival time, dose: 240.0 mg/kg/injection, schedule: Q04DX003 (ip), vehicle: saline with Tween-80) and 0 of 10 (T/C endpoint: mean survival time, dose: 480.0 mg/kg/injection, schedule: Q01DX001 (oral), vehicle: saline with Tween-80).
As to `CCC[P+](c1ccccc1)(c1ccccc1)c1ccccc1`, the survivor count (T/C endpoint: mean survival time, dose: 25.0 mg/kg/injection, schedule: Q01DX009 (ip), vehicle: saline with Tween-80) is 0 of 6; the survivor count under setting [1] is 0 of 6; the survivor count under setting [3] is recorded as 0 of 6; the survivor count (T/C endpoint: mean survival time, dose: 150.0 mg/kg/injection, schedule: Q01DX001 (ip), vehicle: other) is on record as 2 of 6; the survivor count (T/C endpoint: mean survival time, dose: 300.0 mg/kg/injection, schedule: Q01DX001 (ip), vehicle: other) is recorded as 0 of 6.
For `O=C1C=CC(=O)c2ccccc21`, the survivor count is recorded as 5 of 6 (T/C endpoint: mean survival time, dose: 5.0 mg/kg/injection, schedule: Q04DX003 (ip), vehicle: saline with Tween-80); 0 of 6 (T/C endpoint: mean survival time, dose: 10.0 mg/kg/injection, schedule: Q04DX003 (ip), vehicle: saline with Tween-80); 0 of 6 (T/C endpoint: mean survival time, dose: 20.0 mg/kg/injection, schedule: Q04DX003 (ip), vehicle: saline with Tween-80); 0 of 6 (T/C endpoint: mean survival time, dose: 40.0 mg/kg/injection, schedule: Q04DX003 (ip), vehicle: saline with Tween-80); 0 of 6 (T/C endpoint: mean survival time, dose: 100.0 mg/kg/injection, schedule: Q04DX003 (ip), vehicle: saline with Tween-80); 0 of 6 under setting [6]. Moreover, the survivor count under setting [7] was 0 of 6.
Consider `CCC1CCC(NC(=O)NC)CC1` (configuration not stated), for which the survivor count under setting [7] is given as 4 of 6.
With `O.O=C(O)C(Cc1ccc(O)cc1)N=Cc1c(O)cncc1COP(=O)(O)O.[Cu]` (configuration not stated), the survivor count is listed as 1 of 3 (T/C endpoint: mean survival time, dose: 100.0 mg/kg/injection, schedule: Q01DX001 (ip), vehicle: saline with Tween-80); 1 of 3 (T/C endpoint: mean survival time, dose: 200.0 mg/kg/injection, schedule: Q01DX001 (ip), vehicle: saline with Tween-80); 1 of 3 under setting [8].
As to `O=C(CCl)N1c2ccccc2Sc2ccccc21`, the survivor count (T/C endpoint: mean survival time, dose: 400.0 mg/kg/injection, schedule: Q01DX009 (ip), vehicle: water) is recorded as 5 of 6.
Turning to `Cc1ccc(/C=N\N=C\c2ccc(C)cc2)cc1`, the survivor count under setting [6] is listed as 6 of 6.
Turning to `CCOC(=O)c1ccc(NN=NCCF)cc1`, the T/C (T/C endpoint: median survival time, dose: 12.5 mg/kg/injection, schedule: Q01DX009 (ip), vehicle: distilled water + Tween-80) was 133 % of control [5 of 6 alive]. Moreover, for the setting “T/C endpoint: median survival time, dose: 50.0 mg/kg/injection, schedule: Q01DX009 (ip), vehicle: distilled water + Tween-80”, the survivor count is 1 of 6 and 3 of 6.
Consider `O=c1nc(-c2ccccc2)c(-c2ccccc2)n[nH]1`, for which the survivor count under setting [9] is 1 of 6.
`C1=CC2C3=CC1C=CC32` (configuration not stated): for the setting “T/C endpoint: mean survival time, dose: 400.0 mg/kg/injection, schedule: Q01DX009 (ip), vehicle: acetone”, the survivor count is recorded as 4 of 6.
Regarding `Cc1ccccc1NC(=O)CN(C)C`, where the note is “T/C endpoint: mean survival time, dose: 400.0 mg/kg/injection, schedule: Q01DX001 (ip), vehicle: other”, the survivor count is given as 3 of 6.
As to `O=C(C1CO1)C(Cl)(Cl)Cl` (configuration not stated), the survivor count runs as follows: (T/C endpoint: median survival time, dose: 100.0 mg/kg/injection, schedule: Q01DX009 (ip), vehicle: saline) 0 of 6; (T/C endpoint: median survival time, dose: 200.0 mg/kg/injection, schedule: Q01DX009 (ip), vehicle: saline) 0 of 6.
With `O=C(O)C(Cl)(c1ccccc1)C(Cl)c1ccccc1` (configuration not stated), under setting [7], the survivor count is recorded as 1 of 6.
Turning to `CC(C)(C)c1cc(O)c(O)c(C(C)(C)C)c1`, under setting [2], the survivor count is 1 of 6.
Consider `O=C(Nc1ccc(NC(=O)c2ccccc2)c2ccccc12)c1ccccc1`, for which the survivor count under setting [6] is reported as 6 of 6.
For `COc1ccc(CN(CCO)Cc2ccccc2)cc1OC`, under setting [7], the survivor count is reported as 0 of 6.
With `CS(=O)(=O)c1nc2ccccc2s1`, the survivor count under setting [5] is 0 of 6.
As to `COC(=O)c1ccc(N2C(=O)C=CC2=O)cc1`, the survivor count (T/C endpoint: mean survival time, dose: 6.0 mg/kg/injection, schedule: Q01DX009 (ip), vehicle: saline with Tween-80) is listed as 6 of 6.
In the case of `O=c1[nH]cc(Br)c2sccc12`, under setting [4], the survivor count is 5 of 6.
Take `CCN(CC)C(=S)N1C(=O)C2C3CCC(O3)C2C1=O` (configuration not stated): the survivor count by setting is: (T/C endpoint: mean survival time, dose: 50.0 mg/kg/injection, schedule: Q04DX002 (ip), vehicle: saline with Tween-80) 1 of 3; (T/C endpoint: mean survival time, dose: 100.0 mg/kg/injection, schedule: Q04DX002 (ip), vehicle: saline with Tween-80) 0 of 3.
With `N#CCc1ccccc1`, the survivor count (T/C endpoint: mean survival time, dose: 40.0 mg/kg/injection, schedule: Q01DX001 (ip), vehicle: saline) is recorded as 0 of 6.
For `CCC(C)C(=O)CN(C)C` (configuration not stated), the survivor count under setting [9] was 0 of 4.
Regarding `CCSc1ncnc2c1ncn2C1OC(CO)C(O)C1O` (configuration not stated), the T/C under setting [1] is 142 % of control; the T/C under setting [3] is 147 % of control; the T/C (T/C endpoint: mean survival time, dose: 100.0 mg/kg/injection, schedule: Q04DX003 (ip), vehicle: saline sonified) is 130 % of control; the T/C (T/C endpoint: mean survival time, dose: 200.0 mg/kg/injection, schedule: Q04DX003 (ip), vehicle: saline sonified) is 130 % of control; the T/C under setting [6] is 140 % of control; the T/C (T/C endpoint: mean survival time, dose: 300.0 mg/kg/injection, schedule: Q04DX003 (ip), vehicle: saline with Tween-80) was 129 % of control [5 of 6 alive]. For the setting “T/C endpoint: mean survival time, dose: 400.0 mg/kg/injection, schedule: Q04DX003 (ip), vehicle: saline sonified”, the survivor count is given as 3 of 6.
As for `NNc1ccc2ccccc2n1`, the survivor count (T/C endpoint: mean survival time, dose: 100.0 mg/kg/injection, schedule: Q04DX003 (ip), vehicle: saline) is reported as 0 of 6; the survivor count (T/C endpoint: mean survival time, dose: 200.0 mg/kg/injection, schedule: Q04DX003 (ip), vehicle: saline) is reported as 0 of 6; the survivor count under setting [9] was 0 of 6.
`CN(C)c1ccc(N=Nc2cccnc2)cc1`: under setting [8], the survivor count was 1 of 3.
In the case of `O=C1C(=O)c2ccccc2C(O)=C1[N+](=O)[O-]`, the survivor count is, setting by setting: under setting [4], 3 of 6; under setting [5], 2 of 6.
